Results are given in words; binding and its absence hold for the method and conditions named. In cells and extracts the contact can be indirect.
Legend:
[1] = biological target: MIEF1 (endogenous) (human (endogenous in 293T)) (UniProt Q9NQG6); assay: co-IP; endogenous proteins; 293T cells in vivo crosslinked with 1% formaldehyde; Protein G beads pre-bound to anti-Mfn1 or anti-Mfn2 antibody (normal IgG as control), overnight at 4°C; immunoblot
[2] = biological target: T1, MIEF2 (endogenous) (human (endogenous in 293T)) (UniProt Q96C03); assay: as above
T1 sequence: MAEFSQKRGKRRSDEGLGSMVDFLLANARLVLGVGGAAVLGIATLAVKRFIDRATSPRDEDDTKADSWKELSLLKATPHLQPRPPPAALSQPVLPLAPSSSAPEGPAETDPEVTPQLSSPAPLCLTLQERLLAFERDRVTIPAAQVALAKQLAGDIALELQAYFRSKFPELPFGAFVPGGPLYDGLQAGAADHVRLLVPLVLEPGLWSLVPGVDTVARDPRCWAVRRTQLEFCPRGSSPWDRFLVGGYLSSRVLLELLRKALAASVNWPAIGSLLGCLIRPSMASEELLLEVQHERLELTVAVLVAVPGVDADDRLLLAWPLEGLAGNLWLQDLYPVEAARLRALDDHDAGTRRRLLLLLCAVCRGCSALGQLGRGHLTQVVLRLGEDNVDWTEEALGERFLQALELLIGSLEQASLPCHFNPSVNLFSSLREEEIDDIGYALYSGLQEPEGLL

The chains behind the UniProt entries cited, without tags or fusion partners.
UniProt Q9NQG6: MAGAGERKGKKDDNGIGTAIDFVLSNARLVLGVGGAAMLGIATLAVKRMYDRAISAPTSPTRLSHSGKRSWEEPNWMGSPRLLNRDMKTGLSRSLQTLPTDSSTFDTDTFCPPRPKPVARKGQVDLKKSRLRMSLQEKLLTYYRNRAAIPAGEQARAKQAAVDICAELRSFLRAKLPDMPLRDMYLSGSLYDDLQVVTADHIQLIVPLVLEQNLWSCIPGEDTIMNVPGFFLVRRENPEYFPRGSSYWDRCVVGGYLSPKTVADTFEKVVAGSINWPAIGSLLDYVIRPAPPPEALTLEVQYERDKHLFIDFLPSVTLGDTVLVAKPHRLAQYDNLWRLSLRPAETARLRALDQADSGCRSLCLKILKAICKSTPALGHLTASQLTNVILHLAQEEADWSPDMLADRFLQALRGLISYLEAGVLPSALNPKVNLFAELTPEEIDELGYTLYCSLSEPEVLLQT
UniProt P21796: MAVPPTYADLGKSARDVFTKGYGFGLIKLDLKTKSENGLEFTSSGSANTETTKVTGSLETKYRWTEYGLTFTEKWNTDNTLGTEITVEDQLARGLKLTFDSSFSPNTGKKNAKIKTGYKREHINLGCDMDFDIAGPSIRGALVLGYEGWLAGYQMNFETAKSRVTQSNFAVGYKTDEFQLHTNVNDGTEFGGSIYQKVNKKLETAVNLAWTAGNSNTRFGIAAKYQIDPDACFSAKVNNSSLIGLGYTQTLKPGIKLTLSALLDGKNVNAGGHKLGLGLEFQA

binding [1]: no binding
binding [2]: no binding
Substance: voltage-dependent anion channel 1 (VDAC1), endogenous (from UniProt P21796 1-283)

Source: PMC8532385
